{
  "source": "patent EP3984547A1",
  "about": "(Universitat Pompeu Fabra, dated 2022)",
  "note": "Some peptides are written in HELM: one residue between dots, names in brackets for other building blocks, links after the first $.",
  "data": [
    {"assay": "general procedure: Fmoc solid-phase peptide synthesis; H-Rink Amide-ChemMatrix resin, 0.50 mmol/g; N,N,N',N'-tetramethyluronium hexafluorophosphate (5 eq) / DIEA (10 eq)", "conditions": "whole synthesis, 220 nm, scale of the general procedure 0.05 mmol", "units": {"purity (crude or final not stated)": "%"}, "values": [
      {"substance": "PEPTIDE1{D.N.G.G.G.N.T.D.I.Y.S.E.[am]}$$$$V2.0", "purity (crude or final not stated)": 88},
      {"substance": "PEPTIDE1{S.Y.T.D.V.Q.D.S.[am]}$$$$V2.0", "purity (crude or final not stated)": 93},
      {"substance": "PEPTIDE1{T.T.D.G.S.T.G.D.D.L.Q.A.[am]}$$$$V2.0", "purity (crude or final not stated)": 96},
      {"substance": "PEPTIDE1{S.W.Y.D.H.M.A.G.D.S.S.Y.[am]}$$$$V2.0", "purity (crude or final not stated)": 95}
    ]}
  ]
}
